LdMetRS: 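Methionyl-tRNA synthetase (putative), Leishmania donovani (UniProt E9BF75). Primary screen of methionyl-tRNA synthetase; the read-out is not stated. The test concentration is not given. The values are filed as inhibition. About 68,000 compounds were tested under these conditions; 0.035% (about 24) showed 50% or more at least once.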
Mtb heat-shock: 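Assay on Mycobacterium tuberculosis, filed only as a heat shock assay from Cornell; the read-out is not stated. The concentration is filed as 10 mM, unlikely as a test dose, so the dose is not known. The record gives no direction; compounds that gave an IC50 in retests scored well above the rest, so higher reads as stronger inhibition. Of about 69,000 compounds tested this way, about 930 (1.4%) reached 50% or more in at least one test.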

Sequences of proteins named here, by UniProt entry; tags and fusion partners are left off.
UniProt E9BF75, entry or part of it: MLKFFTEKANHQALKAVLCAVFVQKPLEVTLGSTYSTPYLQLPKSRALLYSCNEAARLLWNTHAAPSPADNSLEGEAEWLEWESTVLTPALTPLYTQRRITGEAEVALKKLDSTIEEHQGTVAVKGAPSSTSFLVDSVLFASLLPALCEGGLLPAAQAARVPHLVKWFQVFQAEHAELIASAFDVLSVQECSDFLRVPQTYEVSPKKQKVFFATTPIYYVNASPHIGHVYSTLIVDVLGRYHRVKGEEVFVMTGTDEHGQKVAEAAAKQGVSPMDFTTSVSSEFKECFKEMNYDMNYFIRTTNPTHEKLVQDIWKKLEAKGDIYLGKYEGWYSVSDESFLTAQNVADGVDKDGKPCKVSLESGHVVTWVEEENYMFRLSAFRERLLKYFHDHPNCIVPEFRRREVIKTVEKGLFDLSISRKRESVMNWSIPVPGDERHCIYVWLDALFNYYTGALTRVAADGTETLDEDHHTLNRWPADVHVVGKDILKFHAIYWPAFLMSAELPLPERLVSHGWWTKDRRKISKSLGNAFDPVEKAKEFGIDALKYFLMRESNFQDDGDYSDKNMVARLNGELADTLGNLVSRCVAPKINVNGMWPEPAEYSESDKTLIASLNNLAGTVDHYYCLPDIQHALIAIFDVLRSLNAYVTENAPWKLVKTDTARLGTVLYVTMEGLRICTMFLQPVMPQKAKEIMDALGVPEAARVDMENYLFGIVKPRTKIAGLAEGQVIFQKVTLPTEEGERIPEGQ

All values are in %. The controls that fix the scale are not given in the record; negative values are as filed. The compounds are a random part of those screened.

Result for O=C(O)C(F)(F)F.[H][C@]12CN(Cc3csc(C)n3)C(=O)[C@@]1([H])CN(c1ncccn1)C2 was Mtb heat-shock: -18.48%. With Cn1ccnc1CN1CCC2(COCCN(Cc3ccsc3)C2)C1 (configuration not stated) the screen gave LdMetRS: 10.24%; Mtb heat-shock: -27.21%. NC(=O)C1CCN(CCc2ccc(NCc3cccnc3)cc2)CC1 gave LdMetRS: 5.013%; Mtb heat-shock: -26.51%. With Cc1cc(-c2cnc(N3CCCC3)nc2C(C)C)on1 the screen gave LdMetRS: 5.814%; Mtb heat-shock: 8.919%.

CCN1CCOCC12CCN(C(=O)C1CCC1)CC2 gave LdMetRS: 5.449%. With COCCN1Cc2ccccc2C2(CCN(C(=O)c3ccco3)CC2)C1 the screen gave LdMetRS: 9.589%; Mtb heat-shock: 5.049%. With COC(=O)[C@H]1CN(C(=O)NC(C)C)CCN1C(=O)CSC the screen gave LdMetRS: 9.341%; Mtb heat-shock: -18.55%. CCn1nc(C)c(CCn2ccnc2-c2cc3n(n2)CCCNC3)c1C gave LdMetRS: 14.63%; Mtb heat-shock: -0.7847%.

With O=C(Cn1c(=O)oc2ccccc21)NCC1(O)CCc2ccccc21 (configuration not stated) the screen gave LdMetRS: 15.6%; Mtb heat-shock: 8.15%. For Cc1ccc(-c2cccc(CC3(C(=O)O)CCOCC3)c2)c(C)c1 the result was LdMetRS: 15.1%; Mtb heat-shock: -14.43%. CCOC1COC2(CCN(Cc3ccc(C)cc3)CC2)C1.O=C(O)C(F)(F)F (configuration not stated) gave Mtb heat-shock: -2.769%. With O=C(CNC(=O)c1ccc2c(c1)CCC2)NCCNc1ncccn1 the screen gave LdMetRS: 15.43%; Mtb heat-shock: -17.48%.

With CCN(CC)c1ncnc2c(C)nn(CC)c12 the screen gave LdMetRS: 12.31%; Mtb heat-shock: 20.28%. With CCc1n[nH]c(C2CN(C(=O)c3cnc[nH]3)CCO2)n1 (configuration not stated) the screen gave LdMetRS: 10.42%; Mtb heat-shock: 6.422%. For O=C(NCc1ccccc1CN1CCCCCC1)Nc1nncs1 the result was LdMetRS: 12.57%; Mtb heat-shock: -1.756%. [H][C@@]12CCN(C(=O)c3cscn3)C[C@@]1([H])O[C@@H](c1nnc(C3CC3)o1)C2 gave Mtb heat-shock: 27.2%.

Cc1cccc(CN2CCC(c3nnsc3S(C)(=O)=O)CC2)n1 read LdMetRS: 16.95%; Mtb heat-shock: -10.49%. For Cc1ncc(CNCC2CCCN2c2cccnn2)s1 (configuration not stated) the result was LdMetRS: 13.19%; Mtb heat-shock: 14.43%. CCn1cc(C(=O)NCCc2nc(-c3ccc(C)cc3)n[nH]2)c(C)n1 gave LdMetRS: 21.28%; Mtb heat-shock: 0.9201%. O=C([C@H]1COC[C@H]2CN(Cc3ccco3)C[C@H]21)N1CCCO1 gave LdMetRS: 18.83%.

Result for Cc1ccc(C(=O)N2CCC3(CCN(C(=O)c4cccnc4)C3)CC2)o1 was LdMetRS: 8.418%. Result for COc1ccc(COCC(O)CNC(=O)c2cccnc2)cc1 (configuration not stated) was LdMetRS: 1.389%; Mtb heat-shock: -21.14%. Result for CCCOc1ccc(CN)c(OC(F)F)c1 was LdMetRS: 8.447%; Mtb heat-shock: 4.805%. Cc1csc(C(C)(C)NCCOc2ccc(CC#N)cc2)n1 read LdMetRS: 7.062%; Mtb heat-shock: -32.28%.

With N#Cc1c(SCCN2CCCCCC2)sc2c(O)cc(O)nc12 the screen gave LdMetRS: -4.595%; Mtb heat-shock: -20.46%. Cc1cnc(NC(=O)N2CCC(N3CCCCC3=O)CC2)s1 gave LdMetRS: 19.1%; Mtb heat-shock: 3.594%. With CN(C)CCOCC1CN(Cc2ccsc2)Cc2ccnn2C1 (configuration not stated) the screen gave LdMetRS: 12.45%. Result for CC(NC(N)=O)C(=O)NCc1cc(Br)ccc1F (configuration not stated) was LdMetRS: 4.348%; Mtb heat-shock: -5.666%.

With Cc1nc(Cn2cc(I)cc(C)c2=O)oc1C the screen gave LdMetRS: 13.77%; Mtb heat-shock: 12.12%. With CN(C)S(=O)(=O)N1CCC(Oc2cnccn2)CC1 the screen gave LdMetRS: 14.71%; Mtb heat-shock: -2.419%. For CC(CO)NS(=O)(=O)c1cccc(C(C)C)c1 (configuration not stated) the result was LdMetRS: 12.46%; Mtb heat-shock: -34.17%. For CCc1sc(C(=O)Nc2cnn(CC(N)=O)c2)cc1C the result was LdMetRS: 3.43%; Mtb heat-shock: -6.137%.

CN(C(=O)c1ccncc1Cl)c1ccccc1S(C)(=O)=O gave LdMetRS: 5.974%; Mtb heat-shock: -8.136%. CCCn1nc2c(cc1=O)CN(Cc1c(C)noc1C)CC2 read Mtb heat-shock: -1.789%.

Once more, the final 2:

* CN(C(=O)c1ccncc1Cl)c1ccccc1S(C)(=O)=O | LdMetRS: 5.974%; Mtb heat-shock: -8.136%
* CCCn1nc2c(cc1=O)CN(Cc1c(C)noc1C)CC2 | Mtb heat-shock: -1.789%

Source: ChEMBL document CHEMBL3988442, “University of Dundee, Small-Polar-MMV Screening Library” (2021).